Data from the primary screen of doi:10.1371/journal.pone.0140310, rounded.

Drugs:
KU-55933: O=c1cc(-c2cccc3c2Sc2ccccc2S3)oc(N2CCOCC2)c1 at 1000 nM
OSU-03012: NCC(=O)Nc1ccc(-n2nc(C(F)(F)F)cc2-c2ccc3c(ccc4ccccc43)c2)cc1 at 1000 nM
cisplatin: N.N.[Cl][Pt][Cl] at 1600 nM
SNS-032: CC(C)(C)c1cnc(CSc2cnc(NC(=O)C3CCNCC3)s2)o1 at 10 nM
GW9662: O=C(Nc1ccccc1)c1cc([N+](=O)[O-])ccc1Cl at 2000 nM
AZD7762: NC(=O)Nc1cc(-c2cccc(F)c2)sc1C(=O)N[C@H]1CCCNC1 at 20 nM
PF-04217903: OCCn1cc(-c2cnc3nnn(Cc4ccc5ncccc5c4)c3n2)cn1 at 1000 nM
RKI-983: C[C@@H](N)c1ccc(C(=O)Nc2ccnc3[nH]ccc23)cc1 at 400 nM
PD173074: CCN(CC)CCCCNc1ncc2cc(-c3cc(OC)cc(OC)c3)c(NC(=O)NC(C)(C)C)nc2n1 at 100 nM

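Human melanoma cells were exposed to two drugs together for 72 h in 1,536-well plates and read by automated microscopy after fixing and staining. Values are the number of DAPI-stained nuclei as a percentage of the DMSO control: 100 is no effect, lower means fewer cells. Concentrations were fixed for each drug; these are the lower of two levels, a fifth of the higher. These are primary screening values without error estimates.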
This is part of the screen, not chosen by result.
A dash means that no value is listed here.

Combination | COLO 792 | COLO 829 | LB2518-MEL | A101D | LOX IMVI | IST-MEL1 | A375 | C32 | 501mel | G-361 | MEL-HO | IPC-298 | A2058 | COLO 800
PD173074 and AZD7762 | 91.2 | 121 | 136 | 91.6 | 153 | 117 | 46.7 | 103 | 101 | 99.7 | 94.0 | 94.7 | 119 | 64.6
PF-04217903 and AZD7762 | - | - | - | 77.0 | - | - | 48.6 | 128 | - | - | - | - | 121 | -
PD173074 and cisplatin | - | - | - | 91.3 | - | - | - | 93.2 | - | - | - | - | 98.0 | -
OSU-03012 and SNS-032 | - | - | - | - | - | - | - | 105 | - | - | - | - | - | -
AZD7762 and SNS-032 | - | - | - | - | - | - | - | 106 | - | - | - | - | - | -
AZD7762 and GW9662 | 92.8 | 95.6 | 111 | - | 99.8 | 99.9 | - | - | - | 104 | 111 | 112 | - | 145
RKI-983 and KU-55933 | - | - | - | 95.1 | - | - | - | 75.0 | 106 | - | - | - | 82.6 | -
AZD7762 and cisplatin | - | - | - | 81.7 | - | - | 80.0 | 105 | - | - | - | - | 95.8 | -
OSU-03012 and PD173074 | 95.9 | 85.1 | 106 | 97.2 | 87.4 | 102 | 22.5 | 90.1 | 42.6 | 122 | 107 | 72.1 | 103 | 102
cisplatin and SNS-032 | - | - | - | 111 | - | - | 105 | 90.2 | - | - | - | - | 98.5 | -
PF-04217903 and KU-55933 | 93.2 | 111 | 126 | 104 | 113 | 108 | 92.7 | 82.1 | 98.9 | 93.8 | 101 | 100 | 91.4 | 139
SNS-032 and RKI-983 | - | - | - | 95.1 | - | - | 73.6 | 89.8 | - | - | - | - | 80.3 | -
RKI-983 and GW9662 | - | - | - | 96.7 | - | - | - | 104 | 170 | - | - | - | 97.4 | -
GW9662 and PF-04217903 | 91.1 | 94.4 | 90.2 | 107 | 77.7 | 109 | 98.8 | 104 | 103 | 100 | 123 | 98.5 | 108 | 95.1
PD173074 and PF-04217903 | 84.7 | 71.8 | - | 99.6 | 97.6 | 102 | 94.2 | 98.0 | - | 110 | 98.5 | 99.4 | 112 | 104
KU-55933 and OSU-03012 | 84.1 | 77.3 | 110 | 101 | 85.8 | 95.2 | 27.7 | 115 | 45.5 | 89.1 | 86.5 | 79.8 | 108 | 117
KU-55933 and SNS-032 | 83.8 | 97.0 | 105 | 104 | 97.4 | 93.9 | 97.8 | 94.1 | 96.0 | 102 | 113 | 100 | 98.2 | 105
PD173074 and SNS-032 | 97.6 | 95.7 | 102 | 104 | 49.5 | 104 | 95.5 | 102 | 76.6 | 108 | 112 | 101 | 93.7 | 74.9
AZD7762 and KU-55933 | 97.9 | 112 | 130 | 80.1 | 127 | 108 | 68.0 | 94.1 | 108 | 104 | 85.8 | 108 | 104 | 101
RKI-983 and PD173074 | - | - | - | 86.4 | - | - | - | 85.7 | 117 | - | - | - | 86.1 | -
GW9662 and OSU-03012 | 93.0 | 87.6 | 105 | - | 72.3 | 96.6 | - | - | - | 104 | 76.8 | 82.0 | - | 81.4

Once more, the final 2:

Combination,COLO 792,COLO 829,LB2518-MEL,A101D,LOX IMVI,IST-MEL1,A375,C32,501mel,G-361,MEL-HO,IPC-298,A2058,COLO 800
RKI-983 and PD173074,-,-,-,86.4,-,-,-,85.7,117,-,-,-,86.1,-
GW9662 and OSU-03012,93.0,87.6,105,-,72.3,96.6,-,-,-,104,76.8,82.0,-,81.4